Measured values as given in patent publication US8865654B2, “Eye drops” (Santen Pharmaceutical Co., Ltd., priority 2009, dated 2014).
Some results were stated once for a whole list of compounds, not compound by compound.

Assay: Stability test of eye drop (residual ratio by HPLC after storage at 40° C.)
Assay type: physicochemical
Conditions: stored at 40° C. for 6 months
Procedure: Each sample (100 mL, eye drop) containing the SSSR acetate at 0.003% (w/v) and the FGLM hydrochloride at 0.05% (w/v) was prepared at a pH in a range of 2.5 to 7.0 and stored at 40° C. The concentrations of the SSSR and the FGLM were measured by the HPLC method after 2 months storage, 3 months storage, and 6 months storage, and the residual ratios of the SSSR and the FGLM were determined, respectively.

| Substance | FGLM remaining in the eye drop (pH range of 2.5 to 7.0) [%] | SSSR remaining in the eye drop (pH range of 2.5 to 6.5) |
| --- | --- | --- |
| Phe-Gly-Leu-Met-NH2 (FGLM; printed: Phe-Gly-Leu-Met-) [tetrapeptide at the C-terminal of Substance P, used as hydrochloride] | ≥ 50 | – |
| Ser-Ser-Ser-Arg (SSSR; printed: Ser-Ser-Ser-Arg) [partial peptide of insulin-like growth factor I, used as acetate] | – | ≥ 50 |
